These results are taken from patent US20080201871A1, “ANTIMICROBIAL COLORANTS” (The Regents of the University of California, priority 2003, published 2008).

The assay deals with E. coli. Put plainly: Antimicrobial efficacy (log reduction) at fixed concentration and contact time. The format is cell-based, Escherichia coli. The note with it: E. coli 10^7~10^8 CFU/ml; 10 ppm. On the procedure: Antimicrobial activity of the agents in aqueous solution was evaluated by a minimum inhibitory concentration (MIC) procedure (Kaminski, J. J., Hyycke, N. M. et al., Pharm. Sci., 65(12):1737 (1976)). MIC refers to the lowest concentration of biocides that prohibit population and reproduction of microorganisms. In this method, 1 mL of an aqueous suspension containing 10^6˜10^7 colony-forming units (CFU)/mL of Staphylococcus aureus (S. aureus, ATCC #12600, Gram-positive) or Escherichia coli (E. coli, K-12, Gram-negative) were placed into 9 mL aqueous solutions containing different concentrations of the agents for a contact time of 24 hours. After the contact, a 100 μL aliquot of the resultant solution was serially diluted by sterilized distilled water to 10^1, 10^2, 10^3, 10^4 and 10^5. 100 μL of the last four dilutions were placed onto a nutrient agar plate and incubated at 37° C. for 24 hours. The same procedure was applied to a distilled water solution without the antimicrobial agents as a control. […]
To better study the biocidal rate of these colorants, the antimicrobial efficacy of the colorants in terms of log reduction is assessed against E. Coli under different contact time ranging from 15 minutes to 24 hours. […]

As to `CCCCCCCCCCCCCCCC[n+]1ccccc1.[Cl-]` [CPC, N-cetylpyridinium chloride, reference compound], the “Antimicrobial Efficacy (log reduction)” value was found to be 0 log reduction.
